Measured values from the supplement of paper PMC10849652.
Some of the results follow. Residues, ends and D or L forms follow the SMILES beside them. *: point of attachment. Cbz = O=C(OCc1ccccc1)*

Protein sequences, listed by entry. Tags and fused reporters are not part of them. Lines headed by an entry give the natural chain unless they say otherwise; changes in a name come on top.
UniProt Q9HB09: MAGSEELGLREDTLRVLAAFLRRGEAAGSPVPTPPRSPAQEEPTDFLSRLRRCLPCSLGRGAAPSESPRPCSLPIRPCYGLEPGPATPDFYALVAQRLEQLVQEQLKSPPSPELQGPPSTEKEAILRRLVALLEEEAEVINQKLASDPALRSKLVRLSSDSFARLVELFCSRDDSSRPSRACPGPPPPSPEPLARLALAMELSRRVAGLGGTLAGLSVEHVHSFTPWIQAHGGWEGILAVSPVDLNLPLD
UniProt P54132: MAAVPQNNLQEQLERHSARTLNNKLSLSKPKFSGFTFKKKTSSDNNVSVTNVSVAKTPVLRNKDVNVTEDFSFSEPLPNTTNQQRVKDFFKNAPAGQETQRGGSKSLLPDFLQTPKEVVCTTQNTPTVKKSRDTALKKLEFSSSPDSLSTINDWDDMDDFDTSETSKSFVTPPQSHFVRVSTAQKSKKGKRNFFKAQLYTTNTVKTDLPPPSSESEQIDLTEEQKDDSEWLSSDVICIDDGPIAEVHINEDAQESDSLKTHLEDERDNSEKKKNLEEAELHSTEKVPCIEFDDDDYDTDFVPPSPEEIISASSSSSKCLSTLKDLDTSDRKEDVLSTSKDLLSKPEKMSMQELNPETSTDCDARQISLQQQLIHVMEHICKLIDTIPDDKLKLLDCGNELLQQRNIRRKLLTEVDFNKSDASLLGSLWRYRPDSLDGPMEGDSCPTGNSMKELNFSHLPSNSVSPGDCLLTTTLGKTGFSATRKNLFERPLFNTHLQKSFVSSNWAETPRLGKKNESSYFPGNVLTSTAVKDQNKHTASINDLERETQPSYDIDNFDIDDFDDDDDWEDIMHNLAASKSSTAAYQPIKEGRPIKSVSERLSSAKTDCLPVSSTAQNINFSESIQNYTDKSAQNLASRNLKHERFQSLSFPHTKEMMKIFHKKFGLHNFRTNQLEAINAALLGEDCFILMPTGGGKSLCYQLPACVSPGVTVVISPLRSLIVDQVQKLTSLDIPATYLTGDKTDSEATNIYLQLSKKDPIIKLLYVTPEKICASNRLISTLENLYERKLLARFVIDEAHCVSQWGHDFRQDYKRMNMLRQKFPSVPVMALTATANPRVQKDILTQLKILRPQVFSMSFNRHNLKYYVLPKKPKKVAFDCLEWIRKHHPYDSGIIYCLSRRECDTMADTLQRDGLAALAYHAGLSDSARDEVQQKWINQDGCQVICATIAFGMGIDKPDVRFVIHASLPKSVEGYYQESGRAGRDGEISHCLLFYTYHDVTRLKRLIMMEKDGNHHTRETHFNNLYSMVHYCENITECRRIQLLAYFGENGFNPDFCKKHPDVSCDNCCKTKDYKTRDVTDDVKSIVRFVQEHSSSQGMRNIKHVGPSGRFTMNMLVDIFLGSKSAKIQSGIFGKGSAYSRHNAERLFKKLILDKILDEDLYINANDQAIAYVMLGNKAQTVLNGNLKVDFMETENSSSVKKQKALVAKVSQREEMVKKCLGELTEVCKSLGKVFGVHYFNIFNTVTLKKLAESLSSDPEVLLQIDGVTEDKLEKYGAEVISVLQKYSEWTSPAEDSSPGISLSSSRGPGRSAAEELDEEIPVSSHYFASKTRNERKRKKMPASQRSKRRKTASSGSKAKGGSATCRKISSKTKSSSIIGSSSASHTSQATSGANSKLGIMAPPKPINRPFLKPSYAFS
UniProt P55957: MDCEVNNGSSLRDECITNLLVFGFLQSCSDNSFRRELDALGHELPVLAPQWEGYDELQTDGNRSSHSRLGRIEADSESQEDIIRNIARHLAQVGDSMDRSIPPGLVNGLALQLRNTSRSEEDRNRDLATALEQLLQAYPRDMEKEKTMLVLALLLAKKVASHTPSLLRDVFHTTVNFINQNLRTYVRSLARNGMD
UniProt Q9NYM9: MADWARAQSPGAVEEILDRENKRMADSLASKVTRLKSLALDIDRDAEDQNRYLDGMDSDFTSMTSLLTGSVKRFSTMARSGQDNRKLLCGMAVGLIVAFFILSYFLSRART
UniProt P15056, whole entry, looked up: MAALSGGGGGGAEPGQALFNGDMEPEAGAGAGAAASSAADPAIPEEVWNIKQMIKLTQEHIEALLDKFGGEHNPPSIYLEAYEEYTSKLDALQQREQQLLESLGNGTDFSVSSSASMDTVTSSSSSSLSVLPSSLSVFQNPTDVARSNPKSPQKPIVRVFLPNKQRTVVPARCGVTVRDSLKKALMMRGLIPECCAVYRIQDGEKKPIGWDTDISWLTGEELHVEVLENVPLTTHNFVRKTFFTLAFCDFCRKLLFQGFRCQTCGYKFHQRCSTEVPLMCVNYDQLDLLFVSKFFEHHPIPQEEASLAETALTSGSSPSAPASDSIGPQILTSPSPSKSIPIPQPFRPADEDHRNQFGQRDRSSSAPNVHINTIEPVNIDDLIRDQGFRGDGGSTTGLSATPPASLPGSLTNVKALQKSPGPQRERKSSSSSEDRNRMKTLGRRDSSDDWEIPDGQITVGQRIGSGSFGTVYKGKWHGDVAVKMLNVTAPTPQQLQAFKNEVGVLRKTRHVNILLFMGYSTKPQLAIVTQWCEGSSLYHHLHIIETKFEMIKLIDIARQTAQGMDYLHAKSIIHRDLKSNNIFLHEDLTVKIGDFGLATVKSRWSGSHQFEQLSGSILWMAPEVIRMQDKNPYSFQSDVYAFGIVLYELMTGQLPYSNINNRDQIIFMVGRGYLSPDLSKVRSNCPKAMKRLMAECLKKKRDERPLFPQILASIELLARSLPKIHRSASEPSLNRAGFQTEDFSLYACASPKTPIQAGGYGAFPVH
UniProt Q13535: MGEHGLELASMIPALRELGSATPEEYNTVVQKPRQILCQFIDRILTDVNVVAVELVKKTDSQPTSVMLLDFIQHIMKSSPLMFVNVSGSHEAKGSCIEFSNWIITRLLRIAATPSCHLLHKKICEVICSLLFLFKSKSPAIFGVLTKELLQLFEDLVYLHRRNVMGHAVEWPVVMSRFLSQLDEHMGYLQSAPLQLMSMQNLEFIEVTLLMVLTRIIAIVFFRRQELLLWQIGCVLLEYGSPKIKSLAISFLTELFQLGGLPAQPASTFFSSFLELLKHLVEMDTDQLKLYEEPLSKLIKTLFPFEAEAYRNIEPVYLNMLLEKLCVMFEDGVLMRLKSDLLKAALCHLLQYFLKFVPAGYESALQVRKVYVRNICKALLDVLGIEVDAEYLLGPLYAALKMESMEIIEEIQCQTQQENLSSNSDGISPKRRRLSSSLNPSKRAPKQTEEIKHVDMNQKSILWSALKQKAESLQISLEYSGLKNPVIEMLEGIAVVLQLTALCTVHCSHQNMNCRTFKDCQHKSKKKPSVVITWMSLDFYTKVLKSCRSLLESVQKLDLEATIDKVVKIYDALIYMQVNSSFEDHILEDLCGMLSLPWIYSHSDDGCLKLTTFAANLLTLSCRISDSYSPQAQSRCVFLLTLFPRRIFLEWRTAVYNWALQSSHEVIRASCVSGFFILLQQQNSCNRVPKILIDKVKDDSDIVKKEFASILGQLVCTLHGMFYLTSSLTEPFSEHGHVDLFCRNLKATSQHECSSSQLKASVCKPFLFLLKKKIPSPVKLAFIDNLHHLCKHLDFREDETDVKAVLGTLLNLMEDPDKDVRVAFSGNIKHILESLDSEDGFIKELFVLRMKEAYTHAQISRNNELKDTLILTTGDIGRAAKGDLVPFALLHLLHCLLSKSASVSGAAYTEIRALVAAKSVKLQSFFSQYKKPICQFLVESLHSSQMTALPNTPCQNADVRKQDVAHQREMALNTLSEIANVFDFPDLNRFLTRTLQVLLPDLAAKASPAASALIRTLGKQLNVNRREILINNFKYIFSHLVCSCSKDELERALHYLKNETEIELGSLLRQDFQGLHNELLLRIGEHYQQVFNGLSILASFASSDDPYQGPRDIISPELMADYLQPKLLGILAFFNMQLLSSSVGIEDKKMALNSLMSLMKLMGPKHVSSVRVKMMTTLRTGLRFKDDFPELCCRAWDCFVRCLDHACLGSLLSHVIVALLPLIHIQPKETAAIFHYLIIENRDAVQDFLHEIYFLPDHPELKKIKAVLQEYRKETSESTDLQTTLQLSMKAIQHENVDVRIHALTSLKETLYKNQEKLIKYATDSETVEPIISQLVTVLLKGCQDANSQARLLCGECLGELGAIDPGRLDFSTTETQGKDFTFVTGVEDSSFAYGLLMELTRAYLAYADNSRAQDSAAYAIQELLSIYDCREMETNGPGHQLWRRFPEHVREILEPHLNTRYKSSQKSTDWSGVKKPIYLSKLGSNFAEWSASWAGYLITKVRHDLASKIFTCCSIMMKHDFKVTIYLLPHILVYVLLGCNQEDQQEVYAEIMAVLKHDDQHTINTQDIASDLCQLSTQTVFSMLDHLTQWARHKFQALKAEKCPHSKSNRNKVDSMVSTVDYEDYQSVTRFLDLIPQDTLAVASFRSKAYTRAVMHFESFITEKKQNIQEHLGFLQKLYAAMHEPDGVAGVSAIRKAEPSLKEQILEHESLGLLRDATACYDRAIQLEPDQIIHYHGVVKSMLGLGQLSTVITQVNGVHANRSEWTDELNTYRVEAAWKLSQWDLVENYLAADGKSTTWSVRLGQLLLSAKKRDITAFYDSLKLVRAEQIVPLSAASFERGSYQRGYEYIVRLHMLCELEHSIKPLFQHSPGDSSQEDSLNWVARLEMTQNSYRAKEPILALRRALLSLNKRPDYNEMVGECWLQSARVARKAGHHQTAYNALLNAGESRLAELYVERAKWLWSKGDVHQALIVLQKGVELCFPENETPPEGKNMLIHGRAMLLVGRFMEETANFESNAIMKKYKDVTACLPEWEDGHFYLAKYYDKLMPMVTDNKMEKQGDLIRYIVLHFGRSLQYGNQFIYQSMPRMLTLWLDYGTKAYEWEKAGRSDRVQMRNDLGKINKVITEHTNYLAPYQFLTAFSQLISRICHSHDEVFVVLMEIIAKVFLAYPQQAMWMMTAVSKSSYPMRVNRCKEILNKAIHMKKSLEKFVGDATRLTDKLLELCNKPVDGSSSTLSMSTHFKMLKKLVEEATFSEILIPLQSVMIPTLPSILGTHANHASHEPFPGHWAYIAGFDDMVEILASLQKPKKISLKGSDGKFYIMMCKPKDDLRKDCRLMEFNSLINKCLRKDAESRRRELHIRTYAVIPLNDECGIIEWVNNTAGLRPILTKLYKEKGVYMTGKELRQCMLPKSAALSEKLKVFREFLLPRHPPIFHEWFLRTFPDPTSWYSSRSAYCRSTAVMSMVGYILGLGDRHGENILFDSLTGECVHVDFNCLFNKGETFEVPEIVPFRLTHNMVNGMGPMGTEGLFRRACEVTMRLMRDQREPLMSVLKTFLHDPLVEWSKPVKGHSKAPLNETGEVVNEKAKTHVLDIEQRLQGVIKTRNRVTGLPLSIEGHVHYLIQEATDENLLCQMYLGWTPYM
UniProt O43521, whole entry, looked up: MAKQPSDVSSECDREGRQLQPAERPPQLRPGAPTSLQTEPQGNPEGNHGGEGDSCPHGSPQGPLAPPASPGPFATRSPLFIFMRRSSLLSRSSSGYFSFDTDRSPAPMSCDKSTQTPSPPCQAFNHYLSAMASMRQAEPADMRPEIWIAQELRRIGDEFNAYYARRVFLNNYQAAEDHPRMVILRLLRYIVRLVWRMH
UniProt O75363: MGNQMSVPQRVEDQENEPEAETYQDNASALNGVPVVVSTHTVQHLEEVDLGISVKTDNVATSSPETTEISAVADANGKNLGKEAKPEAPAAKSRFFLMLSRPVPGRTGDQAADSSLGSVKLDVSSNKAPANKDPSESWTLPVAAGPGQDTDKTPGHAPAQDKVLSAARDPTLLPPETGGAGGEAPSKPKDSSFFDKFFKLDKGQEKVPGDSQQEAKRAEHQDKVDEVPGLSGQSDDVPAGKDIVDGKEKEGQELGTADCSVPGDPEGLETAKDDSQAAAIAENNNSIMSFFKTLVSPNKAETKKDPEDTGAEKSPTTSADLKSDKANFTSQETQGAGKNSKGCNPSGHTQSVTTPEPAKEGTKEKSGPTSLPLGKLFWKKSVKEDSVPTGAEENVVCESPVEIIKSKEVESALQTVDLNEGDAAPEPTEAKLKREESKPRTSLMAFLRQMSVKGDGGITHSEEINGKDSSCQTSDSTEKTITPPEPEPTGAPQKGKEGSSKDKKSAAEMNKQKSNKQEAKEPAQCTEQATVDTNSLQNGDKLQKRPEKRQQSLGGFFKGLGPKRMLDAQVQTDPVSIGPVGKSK
UniProt Q13825: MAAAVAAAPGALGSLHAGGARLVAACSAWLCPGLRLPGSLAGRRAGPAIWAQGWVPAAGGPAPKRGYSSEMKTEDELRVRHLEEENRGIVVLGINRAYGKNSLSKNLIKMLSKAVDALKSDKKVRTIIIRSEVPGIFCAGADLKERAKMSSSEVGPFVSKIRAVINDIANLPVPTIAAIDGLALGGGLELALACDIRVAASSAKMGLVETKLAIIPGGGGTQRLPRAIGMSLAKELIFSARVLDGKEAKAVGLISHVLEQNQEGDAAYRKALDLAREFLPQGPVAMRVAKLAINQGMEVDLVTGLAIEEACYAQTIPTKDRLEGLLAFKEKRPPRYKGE

Tests used:
Assay in all cases: log2 fold change, soluble protein after heating vs DMSO (PISA); higher = thermal stabilisation; K562 cells, 10 uM, 30 min; active = over 0.2 and 3.5 SD of the protein, either way, in both replicates (recomputed)
erlotinib = compound: C#Cc1cccc(Nc2ncnc3cc(OCCOC)c(OCCOC)cc23)c1 [erlotinib]
In short: (§1)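 For each measurement, 10 μM compound was applied for 30 min to K562 cells at 2×10^6 cells/mL. Aliquots were heated for 3 min across 48°C-58°C, pooled, and extracted in PBS with 0.5% NP-40 at 4°C; the supernatant after 21,000xg for 90 min was soluble protein. This was quantified by TMTpro 16plex LC-MS/MS with channel sums equalised, and thermal stability was reported relative to control samples from duplicates, on a log2 fold-change scale.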

[1] = compound: C/C(=N\NC(=O)C1=CC(=CC=C1)S(=O)(=O)N2CCOCC2)/C3=C(C=CC(=C3)Cl)O
In short: as §1

[2] = compound: C1=CC(=C(C=C1Cl)C2=NC3=NC=CN=C3C(=N2)NC4=CC=NC=C4)F
In short: as §1

[3] = compound: C1=CC(=CC=C1C2=NC3=C(N2)C=C(C=C3)C(=O)N)OC4=CC=C(C=C4)Cl
In short: as §1

[4] = compound: C1=CC2=C(C=CC(=C2)/C=C\3/C(=O)NC(=NCC4=CC=CS4)S3)N=C1
In short: as §1

[5] = compound: C1=CC2=NC=CN=C2C=C1/C=C/3\C(=O)NC(=O)S3
In short: as §1

[6] = compound: C1=CC=C(C=C1)C2=NC(=C(N2)C3=CC=NC=C3)C4=CC(=C(C=C4)Cl)O
In short: as §1

[7] = compound: C1=CC=C2C(=C1)C3=NNC4=CC=CC(=C43)C2=O
In short: as §1

[8] = compound: C1CCN(C1)C(=O)NC2=CC=CC(=C2)NC3=NC=C(C(=N3)NCCC4=CN=CN4)Br
In short: as §1

[9] = compound: C1CN(CCC1(CC2=CC=C(C=C2)Cl)N)C3=NC=NC4=C3C=CN4
In short: as §1

IRAK-1-4 Inhibitor I = compound: C1COCCN1CCN2C3=CC=CC=C3N=C2NC(=O)C4=CC(=CC=C4)[N+](=O)[O-] [IRAK-1-4 Inhibitor I]
In short: as §1

ibrutinib = compound: C=CC(=O)N1CCC[C@@H](n2nc(-c3ccc(Oc4ccccc4)cc3)c3c(N)ncnc32)C1 [ibrutinib]
In short: as §1

[10] = compound: CC(=O)c1cnc2ccc(-c3cc(Cl)c(O)c(Cl)c3)nc2c1N[C@H]1CC[C@H](CN(C)C)CC1
In short: as §1

ralimetinib = compound: CC(C)(C)Cn1c(N)nc2ccc(-c3[nH]c(C(C)(C)C)nc3-c3ccc(F)cc3)nc21 [ralimetinib]
In short: as §1

[11] = compound: CC(C)(O)CC(=O)NCCn1ccc2ncnc(Nc3ccc(Oc4cccc(C(F)(F)F)c4)c(Cl)c3)c21
In short: as §1

[12] = compound: CC(C)C1=C2N=C(C=C(N2N=C1)NCC3=CC=CC=C3)NCCCCCCN
In short: as §1

[13] = compound: CC(C)C[C@@H](C=O)NC(=O)[C@H](CC(C)C)NC(=O)[C@H](CC(C)C)NC(=O)OCc1ccccc1
In short: as §1

pinometostat = compound: CC(C)N(C[C@H]1O[C@@H](n2cnc3c(N)ncnc32)[C@H](O)[C@@H]1O)[C@H]1C[C@@H](CCc2nc3cc(C(C)(C)C)ccc3[nH]2)C1 [pinometostat]
In short: as §1

[14] = compound: CC1=C(C2=C(C=C1)C(=O)C3=CC=CC=C3N2CCCN)C
In short: as §1

[15] = compound: CC1=C(C(CC(=O)N1)C2=CC=C(C=C2)C(F)(F)F)C(=O)NC3=C(C=C4C(=C3)C=NN4)F
In short: as §1

Measured: log2 fold change

B4GALNT1 (UniProt Q00973)
inactive: erlotinib -0.176 | [1] -0.006 | [2] 0.029 | [3] 0.101 | [4] 0.124 | [5] -0.038 | [6] -0.073 | [7] -0.189 | [8] 0.069 | [9] -0.141 | IRAK-1-4 Inhibitor I 0.01 | ibrutinib -0.159 | [10] -0.188 | ralimetinib -0.129 | [11] 0.017 | [12] 0.038 | [13] 0.052 | pinometostat -0.101 | [14] 0.057

BRD4 (UniProt O60885)
inactive: erlotinib -0.151 | [1] 0.078 | [2] 0.054 | [3] 0.003 | [4] 0.025 | [5] -0.003 | [6] 0.213 | [7] -0.002 | [8] -0.121 | [9] -0.117 | ibrutinib -0.018 | [10] -0.254 | ralimetinib -0.174 | [11] -0.011 | [12] 0.094 | [13] -0.035 | [14] 0.101

BCL9 (UniProt O00512)
inactive: erlotinib 0.007 | [1] 0.002 | [2] 0.069 | [3] 0.167 | [4] 0.003 | [6] 0.05 | [7] 0.023 | [8] 0.106 | [9] 0.095 | IRAK-1-4 Inhibitor I 0.001 | [10] -0.105 | ralimetinib -0.197 | [11] 0.047 | [12] 0.093 | [13] 0.194 | pinometostat 0.101 | [14] 0.041

BCL2L12 (UniProt Q9HB09)
inactive: erlotinib -0.041 | [1] 0.128 | [2] 0.087 | [3] 0.08 | [4] 0.014 | [5] -0.219 | [6] 0.018 | [7] -0.098 | ibrutinib 0.003 | [10] -0.28 | ralimetinib -0.054 | [11] -0.037 | [12] -0.22 | [13] 0.176 | [15] 0.045

BMP2K (UniProt Q9NSY1)
active: [7] 0.388 | [10] 0.559
inactive: erlotinib 0.079 | [1] -0.16 | [2] -0.016 | [3] -0.024 | [4] 0.178 | [5] -0.042 | [6] -0.012 | [8] 0.353 | [9] -0.061 | IRAK-1-4 Inhibitor I 0.003 | ibrutinib 0.071 | ralimetinib 0.058 | [11] -0.028 | [12] -0.027 | [13] 0.085 | pinometostat -0.008 | [14] -0.009

BRAF, A0A2R8Y8E0
inactive: erlotinib 0.073 | [1] 0.15 | [3] 0.083 | [4] -0.248 | [7] -0.047 | [8] -0.235 | [9] -0.26 | IRAK-1-4 Inhibitor I 0.055 | [10] 0.156 | ralimetinib 0.059 | [12] -0.188 | [13] 0.067 | pinometostat -0.04 | [14] 0.078
active: [6] -0.987

BLM (UniProt P54132)
inactive: erlotinib -0.038 | [1] 0.015 | [3] -0.021 | [4] 0.146 | [5] 0.011 | [6] 0.027 | [7] 0.001 | [8] -0.039 | [9] 0.049 | IRAK-1-4 Inhibitor I -0.086 | ibrutinib -0.075 | [10] -0.168 | ralimetinib -0.062 | [12] -0.122 | [13] -0.069 | pinometostat -0.004 | [15] -0.06 | [14] 0.292

BID isoform 2 (UniProt P55957)
inactive: erlotinib 0.026 | [1] 0.006 | [2] 0.014 | [3] 0.052 | [4] -0.04 | [5] 0.012 | [6] -0.03 | [7] 0.028 | [8] -0.05 | [9] 0.034 | IRAK-1-4 Inhibitor I 0.052 | ibrutinib 0.008 | [10] -0.039 | ralimetinib -0.038 | [11] -0.053 | [12] 0.105 | [13] 0.012 | pinometostat -0.018 | [14] 0.074

BET1L (UniProt Q9NYM9)
inactive: erlotinib 0.028 | [1] 0.201 | [2] 0.056 | [3] -0.078 | [4] 0.074 | [6] -0.045 | [7] -0.01 | [8] -0.031 | [9] -0.028 | [10] -0.102 | ralimetinib -0.05 | [11] 0.05 | [12] -0.008 | [13] -0.096 | [15] 0.057 | [14] 0.11

BSCL2 isoform 4 (UniProt Q96G97)
inactive: erlotinib -0.024 | [1] 0.088 | [2] -0.016 | [3] 0.052 | [4] 0.06 | [5] -0.012 | [7] -0.045 | [8] 0.045 | [9] -0.001 | ibrutinib 0.069 | [10] -0.109 | [11] 0.003 | [12] -0.219 | [14] 0.023

BRAF (UniProt P15056)
inactive: erlotinib 0.031 | [1] 0.057 | [2] 0.034 | [3] 0.007 | [4] 0.08 | [5] -0.012 | [7] -0.054 | [8] -0.088 | [9] 0.024 | IRAK-1-4 Inhibitor I -0.025 | ibrutinib 0.002 | ralimetinib 0.019 | [12] -0.044 | [13] -0.031 | pinometostat 0.047 | [14] 0.056

Quoted from the listing (four entries):
BMP2K (UniProt Q9NSY1)
active: [7] 0.388 | [10] 0.559
inactive: erlotinib 0.079 | [1] -0.16 | [2] -0.016 | [3] -0.024 | [4] 0.178 | [5] -0.042 | [6] -0.012 | [8] 0.353 | [9] -0.061 | IRAK-1-4 Inhibitor I 0.003 | ibrutinib 0.071 | ralimetinib 0.058 | [11] -0.028 | [12] -0.027 | [13] 0.085 | pinometostat -0.008 | [14] -0.009

BRAF, A0A2R8Y8E0
inactive: erlotinib 0.073 | [1] 0.15 | [3] 0.083 | [4] -0.248 | [7] -0.047 | [8] -0.235 | [9] -0.26 | IRAK-1-4 Inhibitor I 0.055 | [10] 0.156 | ralimetinib 0.059 | [12] -0.188 | [13] 0.067 | pinometostat -0.04 | [14] 0.078
active: [6] -0.987

BLM (UniProt P54132)
inactive: erlotinib -0.038 | [1] 0.015 | [3] -0.021 | [4] 0.146 | [5] 0.011 | [6] 0.027 | [7] 0.001 | [8] -0.039 | [9] 0.049 | IRAK-1-4 Inhibitor I -0.086 | ibrutinib -0.075 | [10] -0.168 | ralimetinib -0.062 | [12] -0.122 | [13] -0.069 | pinometostat -0.004 | [15] -0.06 | [14] 0.292

BID isoform 2 (UniProt P55957)
inactive: erlotinib 0.026 | [1] 0.006 | [2] 0.014 | [3] 0.052 | [4] -0.04 | [5] 0.012 | [6] -0.03 | [7] 0.028 | [8] -0.05 | [9] 0.034 | IRAK-1-4 Inhibitor I 0.052 | ibrutinib 0.008 | [10] -0.039 | ralimetinib -0.038 | [11] -0.053 | [12] 0.105 | [13] 0.012 | pinometostat -0.018 | [14] 0.074

Additional entries follow:

BDH2 (UniProt Q9BUT1)
inactive: erlotinib -0.003 | [1] 0.204 | [3] 0.184 | [4] -0.031 | [5] -0.005 | [6] 0.085 | [7] 0.103 | IRAK-1-4 Inhibitor I -0.009 | ibrutinib 0.041 | [10] -0.073 | ralimetinib -0.059 | [12] 0.183 | [13] 0.001 | pinometostat 0.004

BRD3 (UniProt Q15059)
inactive: erlotinib -0.282 | [1] -0.072 | [3] 0.061 | [4] -0.021 | [5] 0.071 | [6] 0.128 | [7] 0.059 | [8] -0.163 | [9] -0.024 | IRAK-1-4 Inhibitor I 0.163 | ibrutinib 0.037 | [10] -0.032 | ralimetinib -0.136 | [12] 0.152 | [13] -0.065 | pinometostat 0.143 | [14] 0.162

ATR (UniProt Q13535)
inactive: erlotinib 0.014 | [1] -0.011 | [2] -0.039 | [3] 0.018 | [4] 0.02 | [5] 0.02 | [6] -0.017 | [7] 0.086 | [8] -0.029 | [9] 0.046 | IRAK-1-4 Inhibitor I 0.093 | ibrutinib 0.031 | [10] 0.021 | ralimetinib -0.03 | [11] -0.077 | [12] 0.046 | [13] 0.037 | pinometostat 0.101 | [14] 0.109

BCL2L11 (UniProt O43521)
inactive: erlotinib 0.011 | [1] -0.03 | [2] -0.024 | [3] -0.058 | [4] -0.128 | [6] 0.026 | [7] 0.017 | [8] -0.189 | [9] 0.196 | [10] -0.009 | ralimetinib -0.063 | [11] 0.172 | [12] -0.045 | [13] -0.072 | [15] -0.049 | [14] -0.066

BCAS1 (UniProt O75363)
inactive: erlotinib 0.027 | [1] -0.057 | [2] -0.112 | [3] 0.016 | [4] -0.064 | [5] -0.123 | [6] -0.048 | [7] -0.003 | [8] 0.053 | [9] -0.038 | ibrutinib 0.127 | [10] -0.046 | ralimetinib 0.026 | [11] -0.139 | [12] 0.067 | [13] 0.103 | [15] 0.197 | [14] 0

AUH (UniProt Q13825)
inactive: erlotinib 0.155 | [1] 0.042 | [3] -0.035 | [4] -0.122 | [5] 0.112 | [6] 0.039 | [7] 0.065 | [8] -0.028 | [9] 0.059 | IRAK-1-4 Inhibitor I -0.237 | ibrutinib 0.031 | [10] 0.036 | ralimetinib -0.003 | [12] 0.084 | [13] 0.026 | pinometostat 0.28 | [14] 0.032
